Measurements from paper PMC11069146.
No constants are given. Whether binding was seen depends on the method and setting. Binding seen in cells or lysates may run through a third protein. These calls come from enrichment with a bait or labelling near it, and not all partners need be listed. For part of these data: Tags and fused reporters may be left off the sequences shown.

Sequences of proteins named here, by UniProt entry; tags and fusion partners are left off.
UniProt Q93009: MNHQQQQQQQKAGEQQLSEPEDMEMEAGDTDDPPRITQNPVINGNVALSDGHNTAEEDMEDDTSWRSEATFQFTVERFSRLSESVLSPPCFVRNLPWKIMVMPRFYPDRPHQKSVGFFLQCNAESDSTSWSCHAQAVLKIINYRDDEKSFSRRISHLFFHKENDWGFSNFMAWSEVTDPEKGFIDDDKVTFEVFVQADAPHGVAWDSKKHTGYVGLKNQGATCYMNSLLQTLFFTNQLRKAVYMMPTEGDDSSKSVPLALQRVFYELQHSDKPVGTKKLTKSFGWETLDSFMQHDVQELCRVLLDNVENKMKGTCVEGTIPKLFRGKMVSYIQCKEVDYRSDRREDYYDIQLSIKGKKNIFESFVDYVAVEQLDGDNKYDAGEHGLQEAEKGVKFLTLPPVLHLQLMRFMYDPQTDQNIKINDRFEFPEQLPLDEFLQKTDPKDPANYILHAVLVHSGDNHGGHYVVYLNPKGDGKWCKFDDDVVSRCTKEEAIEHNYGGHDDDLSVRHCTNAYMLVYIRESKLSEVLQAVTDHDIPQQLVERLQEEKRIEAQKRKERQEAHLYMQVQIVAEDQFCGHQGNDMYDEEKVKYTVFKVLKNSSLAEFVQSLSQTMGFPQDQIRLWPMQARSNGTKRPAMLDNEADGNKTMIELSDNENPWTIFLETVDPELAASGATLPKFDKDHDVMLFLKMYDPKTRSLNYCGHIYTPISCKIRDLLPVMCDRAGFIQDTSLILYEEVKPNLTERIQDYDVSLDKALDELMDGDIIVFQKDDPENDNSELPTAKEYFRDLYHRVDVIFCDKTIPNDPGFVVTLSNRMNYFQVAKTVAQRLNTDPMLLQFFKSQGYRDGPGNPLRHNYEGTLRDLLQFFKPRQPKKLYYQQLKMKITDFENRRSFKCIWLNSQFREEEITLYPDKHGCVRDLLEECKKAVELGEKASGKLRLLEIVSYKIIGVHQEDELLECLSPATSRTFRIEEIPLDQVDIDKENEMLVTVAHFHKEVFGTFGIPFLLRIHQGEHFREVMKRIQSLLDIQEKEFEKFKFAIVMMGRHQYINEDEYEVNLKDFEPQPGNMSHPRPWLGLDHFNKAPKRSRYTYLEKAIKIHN
UniProt P19474: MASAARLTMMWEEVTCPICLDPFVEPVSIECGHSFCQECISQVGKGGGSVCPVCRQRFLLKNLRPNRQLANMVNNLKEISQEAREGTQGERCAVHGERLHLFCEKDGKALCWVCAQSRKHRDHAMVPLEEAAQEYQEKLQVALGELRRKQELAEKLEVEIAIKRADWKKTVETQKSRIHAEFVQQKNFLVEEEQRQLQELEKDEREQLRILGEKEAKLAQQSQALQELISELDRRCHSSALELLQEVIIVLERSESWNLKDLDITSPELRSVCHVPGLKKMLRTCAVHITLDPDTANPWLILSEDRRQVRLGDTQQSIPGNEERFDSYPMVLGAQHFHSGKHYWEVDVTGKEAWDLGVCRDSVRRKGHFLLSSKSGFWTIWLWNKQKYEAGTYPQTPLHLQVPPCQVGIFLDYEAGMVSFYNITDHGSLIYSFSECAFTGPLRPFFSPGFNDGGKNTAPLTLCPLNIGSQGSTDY

What was measured:
[1] = molecular target: T1, FLAG-tagged SNAI2 (UniProt O43623); assay: affinity purification with mass spectrometry; whole-cell extracts from RD cells stably expressing FLAG-SNAI2 purified on an anti-FLAG affinity column; SDS-PAGE, silver staining; bands analysed by mass spectrometry
T1 sequence: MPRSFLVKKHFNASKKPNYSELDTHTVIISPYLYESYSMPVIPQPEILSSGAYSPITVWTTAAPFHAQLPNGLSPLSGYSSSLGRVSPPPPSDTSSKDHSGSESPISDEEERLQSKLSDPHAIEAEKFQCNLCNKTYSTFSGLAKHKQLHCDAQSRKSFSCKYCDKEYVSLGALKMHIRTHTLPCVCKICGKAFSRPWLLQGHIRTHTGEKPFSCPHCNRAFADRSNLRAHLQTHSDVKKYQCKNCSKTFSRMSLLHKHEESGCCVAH

[2] = molecular target: Ubiquitin-specific protease 7 (human (endogenous in RD and A204)) (UniProt Q93009); assay: affinity purification with mass spectrometry; USP7-co-IPed protein complex analysed by mass spectrometry (Fig. S4A); cells and antibody not stated

Substance	binding [1]	binding [2]
E3 ubiquitin ligase TRIM21 (from UniProt P19474 1-475) (enzyme)	binds	binds
Ubiquitin-specific protease 7 (from UniProt Q93009 1-1102) (enzyme)	binds	–
